The subject of the data set is T1, ZC3H12D short isoform (hZC36) (Homo sapiens).
T1 sequence (looked up, limits assumed): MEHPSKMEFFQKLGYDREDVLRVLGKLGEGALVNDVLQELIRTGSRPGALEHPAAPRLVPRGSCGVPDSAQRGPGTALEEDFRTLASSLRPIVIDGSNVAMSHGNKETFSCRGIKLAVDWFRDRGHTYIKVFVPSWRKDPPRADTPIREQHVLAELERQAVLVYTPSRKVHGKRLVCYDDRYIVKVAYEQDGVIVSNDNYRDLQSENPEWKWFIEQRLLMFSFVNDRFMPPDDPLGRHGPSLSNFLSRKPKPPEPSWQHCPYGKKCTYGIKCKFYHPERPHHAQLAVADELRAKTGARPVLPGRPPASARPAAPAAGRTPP
Description: competition with a labelled probe. The note with it: unlabeled 5 uM vs 50 nM biotin-probe 5; EMSA: 100 mM HEPES pH 7.3, 200 mM KCl, 10 mM MgCl2, 10 mM DTT, glycerol, tRNA; recombinant protein; protein details: C-terminal myc-FLAG (pCMV6-Entry); label: 3'-biotin (unlabeled as competitor). In general terms: Mobility shift assays separate free from complexed probe on a gel.

Construct, isoform or probe ends are uncertain for at least one entry. At least one verdict was read from the data and is not stated in words by the source. Protein sequences can lack the tags named with them.

On to “UAUUUAUUUAUGUAUUUAUUGAUUGGUUGAUCUAUUUAAGUUGAUUCAAG [EMSA probe 5]”, for which the binding result is reported as “binds”.
